PubChem BioAssay AID1159584 – Peter MacCallum Cancer Centre – 2016
Shown is a random part of about 18,000 reagents tested. The record does not give: the amount of reagent, the time to read-out.

- Test: 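Knock-downs that harm CDH1-null cells more than parental MCF10A cells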 (primary screen)
- System: human MCF10A breast epithelial cells, parental and CDH1-null
- Reagent: siRNA against human genes
- Measurement: 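Cell viability by CellTiter-Glo ATP luminescence, each line scaled to the mean of mock wells across plates, then CDH1-null over parental ratio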
- Scale: CDH1-null / parental viability ratio: higher = CDH1-null cells survive relatively better than parental; CDH1-null viability vs mock: higher = more viable CDH1-null cells; parental viability vs mock: higher = more viable parental cells

gene | CDH1-null / parental viability ratio | CDH1-null viability vs mock (fraction of mock) | parental viability vs mock (fraction of mock)
PDS5A (PDS5 cohesin associated factor A) | 0.89 | 0.87 | 0.98
AJUBA (ajuba LIM protein) | 0.89 | 1.06 | 1.19
BNIP5 (BCL2 interacting protein 5) | 1.01 | 0.75 | 0.74
AGPAT3 (1-acylglycerol-3-phosphate O-acyltransferase 3) | 0.95 | 0.95 | 1
CT47A3 (cancer/testis antigen family 47 member A3) | 1.36 | 0.87 | 0.64
CSRNP2 (cysteine and serine rich nuclear protein 2) | 1.04 | 1.08 | 1.04
CNIH3 (cornichon family AMPA receptor auxiliary protein 3) | 1.2 | 0.84 | 0.7
NOS1AP (nitric oxide synthase 1 adaptor protein) | 0.8 | 0.43 | 0.54
RHEB (Ras homolog, mTORC1 binding) | 0.93 | 0.7 | 0.75
SCIMP (SLP adaptor and CSK interacting membrane protein) | 1.15 | 0.6 | 0.52
MYOM2 (myomesin 2) | 0.85 | 0.56 | 0.66
DEFB126 (defensin beta 126) | 1.13 | 0.52 | 0.46
GPRC5C (G protein-coupled receptor class C group 5 member C) | 0.84 | 0.79 | 0.94
CRBN (cereblon) | 1.11 | 0.6 | 0.54
CCM2L (CCM2 like scaffold protein) | 1.06 | 0.66 | 0.62
PHYKPL (5-phosphohydroxy-L-lysine phospho-lyase) | 0.9 | 0.74 | 0.82

Laid out differently: entries from further up.
{"gene": "AGPAT3 (1-acylglycerol-3-phosphate O-acyltransferase 3)", "CDH1-null / parental viability ratio": 0.95, "CDH1-null viability vs mock (fraction of mock)": 0.95, "parental viability vs mock (fraction of mock)": 1}
{"gene": "CT47A3 (cancer/testis antigen family 47 member A3)", "CDH1-null / parental viability ratio": 1.36, "CDH1-null viability vs mock (fraction of mock)": 0.87, "parental viability vs mock (fraction of mock)": 0.64}
{"gene": "CSRNP2 (cysteine and serine rich nuclear protein 2)", "CDH1-null / parental viability ratio": 1.04, "CDH1-null viability vs mock (fraction of mock)": 1.08, "parental viability vs mock (fraction of mock)": 1.04}
{"gene": "CNIH3 (cornichon family AMPA receptor auxiliary protein 3)", "CDH1-null / parental viability ratio": 1.2, "CDH1-null viability vs mock (fraction of mock)": 0.84, "parental viability vs mock (fraction of mock)": 0.7}
{"gene": "NOS1AP (nitric oxide synthase 1 adaptor protein)", "CDH1-null / parental viability ratio": 0.8, "CDH1-null viability vs mock (fraction of mock)": 0.43, "parental viability vs mock (fraction of mock)": 0.54}
{"gene": "RHEB (Ras homolog, mTORC1 binding)", "CDH1-null / parental viability ratio": 0.93, "CDH1-null viability vs mock (fraction of mock)": 0.7, "parental viability vs mock (fraction of mock)": 0.75}

Additional records:
gene | CDH1-null / parental viability ratio | CDH1-null viability vs mock (fraction of mock) | parental viability vs mock (fraction of mock)
FZD2 (frizzled class receptor 2) | 1.28 | 0.87 | 0.68
TRPC4 | 1.19 | 0.87 | 0.73
KLRC1 (killer cell lectin like receptor C1) | 1.32 | 0.74 | 0.56
GHRH (growth hormone releasing hormone) | 1.03 | 0.64 | 0.62
FXYD1 (FXYD domain containing ion transport regulator 1) | 1.08 | 0.8 | 0.74
PLSCR2 (phospholipid scramblase 2) | 1.06 | 1 | 0.94
HADHA | 0.94 | 0.81 | 0.86
APOBEC3A (apolipoprotein B mRNA editing enzyme catalytic subunit 3A) | 1.08 | 0.52 | 0.48
RNF157 (ring finger protein 157) | 0.95 | 0.74 | 0.78
DEFB103A (defensin beta 103A) | 0.89 | 0.65 | 0.73
N4BP2L2 (NEDD4 binding protein 2 like 2) | 1.4 | 0.63 | 0.45
TOMM40 (translocase of outer mitochondrial membrane 40) | 1.16 | 1.14 | 0.98
ARHGEF15 (Rho guanine nucleotide exchange factor 15) | 1.21 | 1.02 | 0.84
EME1 (essential meiotic structure-specific endonuclease 1) | 1.22 | 0.55 | 0.45
ERVW-1 (endogenous retrovirus group W member 1, envelope) | 0.87 | 0.86 | 0.99
HUS1 (HUS1 checkpoint clamp component) | 0.86 | 0.77 | 0.9
ZNF140 (zinc finger protein 140) | 0.79 | 0.6 | 0.76
FBXL5 (F-box and leucine rich repeat protein 5) | 1 | 0.88 | 0.88
RMND5A (required for meiotic nuclear division 5 homolog A) | 0.96 | 0.44 | 0.46
SRD5A1 (steroid 5 alpha-reductase 1) | 1.3 | 0.9 | 0.69
MAML3 (mastermind like transcriptional coactivator 3) | 1.06 | 0.56 | 0.53
PWP1 (PWP1 homolog, endonuclein) | 1.01 | 0.86 | 0.85
BTBD2 (BTB domain containing 2) | 1.02 | 0.96 | 0.94
HTR2C (5-hydroxytryptamine receptor 2C) | 0.85 | 0.86 | 1.01
BMPR1B (bone morphogenetic protein receptor type 1B) | 0.95 | 0.84 | 0.88
TSHZ3 (teashirt zinc finger homeobox 3) | 0.91 | 0.6 | 0.66
HOXC5 (homeobox C5) | 1.59 | 0.7 | 0.44
ASIC3 (acid sensing ion channel subunit 3) | 1.57 | 1.16 | 0.74
EIF3G (eukaryotic translation initiation factor 3 subunit G) | 1.3 | 0.6 | 0.46
CTSL3P (cathepsin L family member 3, pseudogene) | 1.05 | 0.9 | 0.86
